Results reported in PMC9965400.
No constants are given. Whether binding was seen depends on the method and setting. In cells and extracts the contact can be indirect. Some results given as binding are weak or reduced against the parent protein; the word gives no strength. Each block holds one molecule with its values, some of them ahead of it.

The chains behind the UniProt entries cited, without tags or fusion partners.
UniProt P26196: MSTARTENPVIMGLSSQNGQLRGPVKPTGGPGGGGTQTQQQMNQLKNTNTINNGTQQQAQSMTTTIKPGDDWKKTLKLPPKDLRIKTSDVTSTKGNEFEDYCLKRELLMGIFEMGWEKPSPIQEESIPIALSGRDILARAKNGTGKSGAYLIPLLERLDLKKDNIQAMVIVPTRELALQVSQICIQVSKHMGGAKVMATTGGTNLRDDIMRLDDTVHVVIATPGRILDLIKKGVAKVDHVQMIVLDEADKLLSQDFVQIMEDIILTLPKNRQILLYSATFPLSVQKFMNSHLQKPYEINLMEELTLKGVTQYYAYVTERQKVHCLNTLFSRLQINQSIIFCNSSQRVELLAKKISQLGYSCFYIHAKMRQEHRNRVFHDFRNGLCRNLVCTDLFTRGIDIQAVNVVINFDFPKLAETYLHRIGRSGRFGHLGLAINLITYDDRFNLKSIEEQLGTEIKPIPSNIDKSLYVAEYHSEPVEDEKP

Molecular target: DDX6 (human (endogenous in HEK293T)) (UniProt P26196)
Assay: co-IP; anti-DDX6 (Bethyl A300-460A) or control rabbit IgG with Dynabeads, 4 °C overnight, nuclear extracts (Gagnon-Li method) of HEK293T cells overexpressing ADAR1 or ADAR2; with or without RNase A; Western blot with ADAR1, ADAR2 and DDX6 antibodies

binding: binds
Molecule: ADAR2 (from UniProt P78563 1-741)

binding: binds
B1: ADAR1 (protein, UniProt P55265-5 1-931)
chain: MAEIKEKICDYLFNVSDSSALNLAKNIGLTKARDINAVLIDMERQGDVYRQGTTPPIWHLTDKKRERMQIKRNTNSVPETAPAAIPETKRNAEFLTCNIPTSNASNNMVTTEKVENGQEPVIKLENRQEARPEPARLKPPVHYNGPSKAGYVDFENGQWATDDIPDDLNSIRAAPGEFRAIMEMPSFYSHGLPRCSPYKKLTECQLKNPISGLLEYAQFASQTCEFNMIEQSGPPHEPRFKFQVVINGREFPPAEAGSKKVAKQDAAMKAMTILLEEAKAKDSGKSEESSHYSTEKESEKTAESQTPTPSATSFFSGKSPVTTLLECMHKLGNSCEFRLLSKEGPAHEPKFQYCVAVGAQTFPSVSAPSKKVAKQMAAEEAMKALHGEATNSMASDNQPEGMISESLDNLESMMPNKVRKIGELVRYLNTNPVGGLLEYARSHGFAAEFKLVDQSGPPHEPKFVYQAKVGGRWFPAVCAHSKKQGKQEAADAALRVLIGENEKAERMGFTEVTPVTGASLRRTMLLLSRSPEAQPKTLPLTGSTFHDQIAMLSHRCFNTLTNSFQPSLLGRKILAAIIMKKDSEDMGVVVSLGTGNRCVKGDSLSLKGETVNDCHAEIISRRGFIRFLYSELMKYNSQTAKDSIFEPAKGGEKLQIKKTVSFHLYISTAPCGDGALFDKSCSDRAMESTESRHYPVFENPKQGKLRTKVENGEGTIPVESSDIVPTWDGIRLGERLRTMSCSDKILRWNVLGLQGALLTHFLQPIYLKSVTLGYLFSQGHLTRAICCRVTRDGSAFEDGLRHPFIVNHPKVGRVSIYDSKRQSGKTKETSVNWCLADGYDLEILDGTRGTVDGPRNELSRVSKKNIFLLFKKLCSFRYRRDLLRLSYGEAKKAARDYETAKNYFKKGLKDMGYGNWISKPQEEKNFYLCPV
